Source: PubChem BioAssay AID1487 (National Center for Advancing Translational Sciences (NCATS), 2009)
The other results are listed elsewhere or left out. The main result of the screen is listed elsewhere. These columns were measured beside it and carry no call. Most of these compounds were active or inconclusive in the main read-out, so they are no random draw. The note in brackets gives the kind of curve behind each potency; many fits are weak.

Assay: qHTS Assay for Modulators of Lamin A Splicing
Conditions: HeLa LMNA splicing GFP/RFP minigene ratio, 48 h
How it was run: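 Read-out is the ratio of GFP to DsRed2 object intensity, acquired by 488 nm laser-scanning cytometry on HeLa lamin A-EGFP minigene reporter cells. Compound incubation 48 hrs at 37 °C in Opti-MEM with 2% FBS; DMSO 0.5% final.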

[1] = measured here: GFP splicing reporter channel
[2] = measured here: RFP viability control channel

| SMILES | AC50 [1] | AC50 [2] |
| --- | --- | --- |
| CN(Cc1ccco1)c1ncnc2ccc(-c3cccnc3)cc12 | 14.1 µM [rising, partial curve] | 15.8 µM [rising, single point] |
| CCCCNC(=O)C1CCN(c2nc3ccc(C)cc3[nH]2)CC1 | 0.316 µM [rising, partial curve, poor fit] |  |
| Cc1cccc(COCC(Cc2ccccc2)N2CCN(C(=O)c3cc(Cl)cc(Cl)c3)CCC2=O)c1 (stereo unspecified) | 35.5 µM [rising, single point] | 35.5 µM [rising, single point] |
| NC(=O)c1cccnc1Nc1cccc(F)c1 | 12.6 µM [rising, single point] | 11.2 µM [rising, partial curve, poor fit] |
| COc1ccc(-n2c(NC(=O)c3ccc(Br)o3)c(C#N)c3nc4ccccc4nc32)cc1 | 10 µM [rising, partial curve, poor fit] | 17.8 µM [rising, partial curve, poor fit] |
| CN(C)C(=O)c1ccc(-c2nccc(NCc3ccccc3)n2)cc1 | 0.178 µM [falling, full curve, poor fit] |  |
| Cc1occc1-c1nnc(SCCNCCO)o1 | 2 µM [falling, full curve] | 6.31 µM [falling, partial curve] |
| CCN1CCN(CCCNC(=O)C2CCCN(c3nnc(-n4cccc4)s3)C2)CC1 (stereo unspecified) | 25.1 µM [rising, partial curve, poor fit] | 15.8 µM [rising, partial curve, poor fit] |
| Cc1ccc(-c2nc(P(=O)(c3ccccc3)c3ccccc3)c(N3CCOCC3)o2)cc1 | 11.2 µM [rising, single point] |  |
| O=C(Nc1cccc(C(=O)O)c1)/C(=C\c1ccccc1)NC(=O)c1cccc2ccccc12 | 14.1 µM [falling, single point] | 14.1 µM [falling, single point] |
| Nc1cc(=O)[nH]c(SCc2cccc(Cl)c2)n1 |  | 35.5 µM [rising, single point] |
| O=C(CN(C1CCCCC1)S(=O)(=O)c1ccc(Br)cc1)NCc1ccncc1 | 3.55 µM [rising, single point] | 0.355 µM [rising, full curve, poor fit] |
| CN1/C(=C\C=C(/C#N)C(=O)Nc2ccccc2F)C(C)(C)c2ccccc21 | 5.01 µM [falling, full curve] | 3.98 µM [falling, full curve] |
| O=C(COc1ccc2c(c1)C(=O)CC1(CCCCC1)O2)NCc1ccccc1 | 12.6 µM [rising, single point] | 17.8 µM [rising, single point] |
| Clc1ccc(SCCCCN2CCNCC2)cc1 |  | 7.08 µM [rising, partial curve] |
| N/N=C(\c1ccccc1)C12CN3CN(CN(C3)C1)C2 |  | 1.26 µM [falling, partial curve] |
| COC1CCN(C(=O)CC2C(=O)NCCN2CC(C)(C)C)CC1 (stereo unspecified) |  | 1.58 µM [falling, partial curve] |
| Cc1cccc2nc(CSc3nc4ccccc4[nH]3)cn12 | 0.0891 µM [falling, full curve] |  |
| COc1cccc2c1C(=O)c1c(O)c3c(c(O)c1C2=O)C[C@](O)(C(C)=O)C[C@H]3O[C@@H]1C[C@H](N)[C@H](O)[C@H](C)O1 | 2.82 µM [falling, partial curve, poor fit] |  |
| Cc1cccc(NC(=O)Nc2cccc(Oc3c(F)c(F)c(F)c(F)c3F)c2)c1 | 22.4 µM [rising, single point] | 17.8 µM [rising, single point] |
| O=S(=O)(NCC1CCCO1)c1ccc(Oc2ccccc2)cc1 (stereo unspecified) |  | 15.8 µM [rising, partial curve] |
| Cc1cccc(C(=O)Nc2ccc(C(=O)OCc3cc(=O)n4c(C)csc4n3)cc2)c1 | 35.5 µM [falling, single point] | 35.5 µM [falling, single point] |
| CC(=O)c1ccc2c(c1)N(C)c1ccccc1S2 | 35.5 µM [falling, single point] | 35.5 µM [falling, single point] |
| CCCCn1c(=O)c(F)cn(Cc2ccc(OC)c([N+](=O)[O-])c2)c1=O |  | 1.58 µM [falling, partial curve, poor fit] |
| CS(=O)(=O)c1ccc2nnn(OCC(=O)Nc3ccc(Br)cc3Br)c2c1 | 17.8 µM [falling, partial curve, poor fit] | 0.562 µM [falling, full curve, poor fit] |
| Cn1c(=O)c2c(SCCN3CCOCC3)nc(C3CCCC3)nc2n(C)c1=O | 1.58 µM [rising, partial curve] |  |
| Cc1ccc(NC(=O)CN2CCC(C(=O)c3ccc4c(c3)OCCO4)CC2)cc1 |  | 15.8 µM [rising, single point] |

| SMILES | AC50 [1] | AC50 [2] |
| --- | --- | --- |
| CC(C)c1cnc2c(c1SCC(=O)c1ccccc1)c(=O)n(C)c(=O)n2C | 0.562 µM [rising, full curve] | 5.62 µM [rising, single point] |
| COc1ccc2[nH]cc(CCNc3ncncc3-c3ccoc3)c2c1 | 2 µM [falling, full curve] |  |
| Cc1ccc(NS(=O)(=O)c2ccc(Cl)c(NC(=S)NC(=O)C3CCCCC3)c2)cc1Cl |  | 35.5 µM [falling, single point] |
| Nc1ccc(C(=O)Nc2ccc(OC(F)(F)C(F)F)c(NC(=O)c3ccc(N)cc3)c2)cc1 |  | 8.91 µM [rising, partial curve] |
| CCOC(=O)C1=C(C)NC(=S)NC1c1ccc(-c2cccc(Cl)c2C)o1 (stereo unspecified) |  | 0.0112 µM [falling, partial curve] |
| CN(C1CCS(=O)(=O)C1)S(=O)(=O)c1ccc(C2CCCCC2)cc1 (stereo unspecified) |  | 14.1 µM [rising, single point] |
| O=C(CSc1ccccc1)NCc1ccc2c(c1)CCN2C(=O)c1ccccc1 | 1.12 µM [rising, partial curve, poor fit] | 0.891 µM [rising, full curve, poor fit] |
| COc1ccc(OC)c(CNC(=O)c2ccc(NC(=O)c3nsc4ccccc34)cc2)c1 | 0.501 µM [rising, partial curve, poor fit] |  |
| CCOC(=O)CN1C(=O)C(CC)Oc2ccc(Cl)cc21 (stereo unspecified) | 12.6 µM [rising, single point] |  |
| Cc1ccc(N=C2NC(=O)CC(C(=O)Nc3ccc4c(c3)OCO4)S2)cc1 (stereo unspecified) | 0.708 µM [rising, partial curve, poor fit] | 1 µM [rising, full curve, poor fit] |
| N=c1c2c(-c3ccccc3)c(-c3ccccc3)n(Cc3ccccc3)c2ncn1CCCn1ccnc1 | 15.8 µM [falling, partial curve] | 11.2 µM [falling, partial curve] |
| COc1ccc(/C=C/C(=O)c2ccc3c4c(cccc24)CC3)cc1OC |  | 5.62 µM [rising, single point] |
| Cc1ccc(S(=O)(=O)C(C)C(=O)NCCS(=O)(=O)c2ccc(Cl)cc2)cc1 (stereo unspecified) | 3.16 µM [falling, single point] | 14.1 µM [falling, single point] |
| O=c1cc(O)nc(SCc2ccccc2)n1-c1ccc(Cl)cc1 | 4.47 µM [rising, single point] | 5.01 µM [rising, partial curve] |
| CS(=O)(=O)Nc1ccc([N+](=O)[O-])cc1Oc1ccccc1 | 1.12 µM [falling, single point] |  |
| COc1ccc(NC(=O)c2sc(N3CCOCC3)nc2-c2ccccc2)c(OC)c1 | 35.5 µM [rising, single point] | 31.6 µM [rising, partial curve] |
| O=C(Cc1cn(Cc2cccc(Cl)c2)c2ccccc12)N1CCCCCC1 |  | 35.5 µM [rising, single point] |
| COc1ccc(C(=O)NCCN2CCOCC2)c(OC)c1 |  | 0.0891 µM [rising, full curve, poor fit] |
| CN1CCN(NC(=O)c2ccc(Cl)s2)CC1 |  | 0.0447 µM [falling, full curve, poor fit] |
| Nc1ccccc1OCP(=O)(c1ccccc1)c1ccccc1 |  | 4.47 µM [falling, partial curve, poor fit] |
| CCn1cc(C(=O)O)c(=O)c2cc(F)c(N3CCNC(C)C3)c(F)c21 (stereo unspecified) | 0.002 µM [rising, full curve, poor fit] |  |
| NC(=O)c1cc[n+](CC2=C(C(=O)O)N3C(=O)[C@@H](NC(=O)C(c4ccccc4)S(=O)(=O)[O-])[C@H]3SC2)cc1 (stereo partly specified) |  | 0.794 µM [rising, partial curve, poor fit] |
| Cc1ccc(NC(=O)c2c(C)oc3c2C2=NCCN2C=N3)cc1F | 20 µM [falling, partial curve] |  |
| O=c1ccc2c(OCCCCc3ccccc3)c3ccoc3cc2o1 | 14.1 µM [falling, single point] | 5.62 µM [falling, single point] |
| CCc1nc(SCC(=O)N2CCN(C(=O)c3ccco3)CC2)c2c3c(sc2n1)CCCC3 | 14.1 µM [rising, single point] | 15.8 µM [rising, single point] |
| CC1CN(C(=O)c2cccn(Cc3c(Cl)cccc3Cl)c2=O)CC(C)O1 (stereo unspecified) | 0.708 µM [falling, full curve, poor fit] |  |

Sorted by formula weight (rising): three of the compounds above.

| SMILES | AC50 [1] | AC50 [2] |
| --- | --- | --- |
| O=c1ccc2c(OCCCCc3ccccc3)c3ccoc3cc2o1 | 14.1 µM [falling, single point] | 5.62 µM [falling, single point] |
| CN(C1CCS(=O)(=O)C1)S(=O)(=O)c1ccc(C2CCCCC2)cc1 (stereo unspecified) |  | 14.1 µM [rising, single point] |
| Cc1cccc(C(=O)Nc2ccc(C(=O)OCc3cc(=O)n4c(C)csc4n3)cc2)c1 | 35.5 µM [falling, single point] | 35.5 µM [falling, single point] |
